# Experimental data: paper doi:10.1101/2025.10.10.681325
# Results are given in words; binding and its absence hold for the method and conditions named. Some binding calls cover weakened binding; strength is not graded here.
# Target: VapB12 antitoxin (Rv1721c), recombinant, as crystallised (M. tuberculosis) (UniProt P9WJ53)
# Assay: crystal structure
substance,measurement,value
"VapB12 antitoxin (Rv1721c), recombinant, as crystallised (from UniProt P9WJ53 1-75)",binding,binds
